Reference: US6379894

Chains of the proteins cited; added tags and fusions are not shown. A change or cut given only in a name is not applied to a line headed by its entry. Chains listed by the source or under a name are the forms on record and can include a tag or linker.
UniProt P22415: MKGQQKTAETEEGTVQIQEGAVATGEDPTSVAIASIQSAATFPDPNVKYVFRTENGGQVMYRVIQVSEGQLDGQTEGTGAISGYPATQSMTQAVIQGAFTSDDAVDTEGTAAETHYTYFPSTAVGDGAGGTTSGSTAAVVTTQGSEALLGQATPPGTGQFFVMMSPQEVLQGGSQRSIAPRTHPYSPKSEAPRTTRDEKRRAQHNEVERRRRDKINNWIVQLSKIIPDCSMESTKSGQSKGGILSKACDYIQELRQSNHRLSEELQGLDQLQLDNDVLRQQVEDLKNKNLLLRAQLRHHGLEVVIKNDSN
STAT1 / USF1 (U complex, nuclear extract of IFN-gamma stimulated Me67.8) (Homo sapiens), one chain, as listed by the source, chain 2 of 2: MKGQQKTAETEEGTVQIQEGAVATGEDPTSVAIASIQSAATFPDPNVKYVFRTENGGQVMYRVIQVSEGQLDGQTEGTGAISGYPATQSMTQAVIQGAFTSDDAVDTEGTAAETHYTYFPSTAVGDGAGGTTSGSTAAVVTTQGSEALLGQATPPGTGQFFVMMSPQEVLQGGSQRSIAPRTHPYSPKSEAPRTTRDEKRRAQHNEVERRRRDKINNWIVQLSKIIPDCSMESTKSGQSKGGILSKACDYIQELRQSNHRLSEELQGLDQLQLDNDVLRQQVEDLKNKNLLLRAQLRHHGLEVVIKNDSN
STAT1 / USF1 (U complex, nuclear extract of IFN-gamma stimulated Me67.8) (Homo sapiens), one chain, as listed by the source, chain 1 of 2: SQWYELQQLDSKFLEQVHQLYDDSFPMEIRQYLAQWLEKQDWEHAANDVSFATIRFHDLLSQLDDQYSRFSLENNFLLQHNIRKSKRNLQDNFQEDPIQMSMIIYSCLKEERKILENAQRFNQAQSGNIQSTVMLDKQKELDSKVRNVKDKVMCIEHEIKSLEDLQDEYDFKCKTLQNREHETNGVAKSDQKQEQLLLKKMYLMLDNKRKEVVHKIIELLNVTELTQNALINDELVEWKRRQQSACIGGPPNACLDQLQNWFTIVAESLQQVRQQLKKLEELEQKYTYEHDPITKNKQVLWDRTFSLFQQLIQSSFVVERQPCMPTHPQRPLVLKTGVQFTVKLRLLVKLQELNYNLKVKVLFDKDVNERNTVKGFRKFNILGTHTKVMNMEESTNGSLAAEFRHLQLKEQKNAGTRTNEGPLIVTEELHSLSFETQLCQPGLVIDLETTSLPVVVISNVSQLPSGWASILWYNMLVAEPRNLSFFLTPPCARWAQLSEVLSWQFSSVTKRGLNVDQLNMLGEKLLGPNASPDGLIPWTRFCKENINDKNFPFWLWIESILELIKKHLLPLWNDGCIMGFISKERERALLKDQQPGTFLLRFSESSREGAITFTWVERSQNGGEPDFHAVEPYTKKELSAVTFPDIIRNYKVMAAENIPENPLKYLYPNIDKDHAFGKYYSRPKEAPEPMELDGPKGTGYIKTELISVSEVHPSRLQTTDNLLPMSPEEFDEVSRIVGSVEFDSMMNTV

Legend:
[1] = test system: STAT1 / USF1 (U complex, nuclear extract of IFN-gamma stimulated Me67.8) (Homo sapiens); assay: EMSA; details: U complex, IFN-gamma stimulated; STAT1 antibody supershift, USF1 antibody; protein in an extract; label: 32P end label
[2] = target: USF1 (L complex, Me67.8 nuclear extract) (Homo sapiens) (UniProt P22415); assay: EMSA; details: L complex, unstimulated or IFN-gamma stimulated extract; USF1 shown by antibody; protein in an extract; label: 32P end label
[3] = target: USF1 (L complex, Me67.8 nuclear extract) (Homo sapiens) (UniProt P22415); assay: competition with a labelled probe; details: L complex disrupted by E competitor; protein in an extract

Sequence	binding result [1]	binding result [2]	binding result [3]
GGCCAGGGATTGGGATGCGAGTTCTGATAAAGCAGGTGGTGGCCACAG (double strand) [NGE probe, CIITA promoter IV GAS/E-box region]	binds	binds	
GGGAAAGCACGTCCTGGCC (double strand) [E competitor (E-box)]			binds

Where cells or extracts were used, other partners may take part.
